# The supplement of paper PMC11438910
# Some of the results follow. The signal is at background level for most entries.
# Key:
# Test in all cases: fluorescence intensity of antibody binding to polysaccharide-coupled beads; higher = stronger binding
# [1] = target: pneumococcal polysaccharide Pn13
# [2] = target: pneumococcal polysaccharide Pn14
# [3] = target: pneumococcal polysaccharide Pn15A
# [4] = target: pneumococcal polysaccharide Pn15B
# [5] = target: pneumococcal polysaccharide Pn15C
# [6] = target: pneumococcal polysaccharide Pn15F
# [7] = target: pneumococcal polysaccharide Pn16A
# [8] = target: pneumococcal polysaccharide Pn16F
# [9] = target: pneumococcal polysaccharide Pn17A
# [10] = target: pneumococcal polysaccharide Pn17F
# [11] = target: pneumococcal polysaccharide Pn18A
# [12] = target: pneumococcal polysaccharide Pn18B
# [13] = target: pneumococcal polysaccharide Pn18C
# [14] = target: pneumococcal polysaccharide Pn18F
# [15] = target: pneumococcal polysaccharide Pn19A
# [16] = target: pneumococcal polysaccharide Pn19B
# [17] = target: pneumococcal polysaccharide Pn19C
# [18] = target: pneumococcal polysaccharide Pn19F
# [19] = target: pneumococcal polysaccharide Pn2
# [20] = target: pneumococcal polysaccharide Pn20A
# [21] = target: pneumococcal polysaccharide Pn20B
# [22] = target: pneumococcal polysaccharide Pn21
# [23] = target: pneumococcal polysaccharide Pn22A
# [24] = antibody concentration 0.1 ng/mL
# [25] = antibody concentration 0.534724 ng/mL
# [26] = antibody concentration 2.8593 ng/mL
# [27] = antibody concentration 15.2894 ng/mL
# [28] = antibody concentration 81.7561 ng/mL
# [29] = antibody concentration 437.17 ng/mL
# [30] = antibody concentration 2337.65 ng/mL
# [31] = antibody concentration 12500 ng/mL
binder,measurement,setting,value
4-127.4 (protein) chain 1: QVQLQESGPGLVKPSETLSLTCGVSGYSISSGHGWSWIRQPPGKGLEWIGYVGGSSGNTNYNPSLKSRVTISKDTSKNQISLKLSSVTAADTAVYYCARRGISGTFGLVDYWGQGVLVTVSS chain 2: QSVLTQPPSVSGAPGQRVTISCTGSSSNIGGYYVQWYQQLPGSAPKLLIYDNDQRPSGVSDRISGSRSGTSASLTITGLQSEDEADYYCQSFDSFLRGVLFGGGTRLTVL,fluorescence intensity,[1]; [24],20.5 MFI
same,fluorescence intensity,[1]; [25],19 MFI
same,fluorescence intensity,[1]; [26],19 MFI
same,fluorescence intensity,[1]; [27],18.5 MFI
same,fluorescence intensity,[1]; [28],18.8 MFI
same,fluorescence intensity,[1]; [29],19 MFI
same,fluorescence intensity,[1]; [30],20 MFI
same,fluorescence intensity,[1]; [31],24.5 MFI
same,fluorescence intensity,[2]; [24],14 MFI
same,fluorescence intensity,[2]; [25],14.5 MFI
same,fluorescence intensity,[2]; [26],13.8 MFI
same,fluorescence intensity,[2]; [27],15 MFI
same,fluorescence intensity,[2]; [28],14 MFI
same,fluorescence intensity,[2]; [29],16.5 MFI
same,fluorescence intensity,[2]; [30],20.5 MFI
same,fluorescence intensity,[2]; [31],59.8 MFI
same,fluorescence intensity,[3]; [24],14 MFI
same,fluorescence intensity,[3]; [25],12.5 MFI
same,fluorescence intensity,[3]; [26],12.5 MFI
same,fluorescence intensity,[3]; [27],12.2 MFI
same,fluorescence intensity,[3]; [28],13 MFI
same,fluorescence intensity,[3]; [29],13.5 MFI
same,fluorescence intensity,[3]; [30],13 MFI
same,fluorescence intensity,[3]; [31],14 MFI
same,fluorescence intensity,[4]; [24],17.5 MFI
same,fluorescence intensity,[4]; [25],19 MFI
same,fluorescence intensity,[4]; [26],18 MFI
same,fluorescence intensity,[4]; [27],18.5 MFI
same,fluorescence intensity,[4]; [28],18.5 MFI
same,fluorescence intensity,[4]; [29],22.5 MFI
same,fluorescence intensity,[4]; [30],22.8 MFI
same,fluorescence intensity,[4]; [31],29 MFI
same,fluorescence intensity,[5]; [24],14.5 MFI
same,fluorescence intensity,[5]; [25],15.2 MFI
same,fluorescence intensity,[5]; [26],17 MFI
same,fluorescence intensity,[5]; [27],16.5 MFI
same,fluorescence intensity,[5]; [28],16.5 MFI
same,fluorescence intensity,[5]; [29],16.8 MFI
same,fluorescence intensity,[5]; [30],18.8 MFI
same,fluorescence intensity,[5]; [31],20.8 MFI
same,fluorescence intensity,[6]; [24],17.8 MFI
same,fluorescence intensity,[6]; [25],18 MFI
same,fluorescence intensity,[6]; [26],17.5 MFI
same,fluorescence intensity,[6]; [27],16.2 MFI
same,fluorescence intensity,[6]; [28],18 MFI
same,fluorescence intensity,[6]; [29],16.5 MFI
same,fluorescence intensity,[6]; [30],19.2 MFI
same,fluorescence intensity,[6]; [31],23 MFI
same,fluorescence intensity,[7]; [24],16.8 MFI
same,fluorescence intensity,[7]; [25],14 MFI
same,fluorescence intensity,[7]; [26],15.5 MFI
same,fluorescence intensity,[7]; [27],12.5 MFI
same,fluorescence intensity,[7]; [28],14.5 MFI
same,fluorescence intensity,[7]; [29],14 MFI
same,fluorescence intensity,[7]; [30],14 MFI
same,fluorescence intensity,[7]; [31],18.5 MFI
same,fluorescence intensity,[8]; [24],25.8 MFI
same,fluorescence intensity,[8]; [25],23.5 MFI
same,fluorescence intensity,[8]; [26],25 MFI
same,fluorescence intensity,[8]; [27],23.5 MFI
same,fluorescence intensity,[8]; [28],25.5 MFI
same,fluorescence intensity,[8]; [29],24.8 MFI
same,fluorescence intensity,[8]; [30],27.5 MFI
same,fluorescence intensity,[8]; [31],34.5 MFI
same,fluorescence intensity,[9]; [24],20.5 MFI
same,fluorescence intensity,[9]; [25],19.5 MFI
same,fluorescence intensity,[9]; [26],21.5 MFI
same,fluorescence intensity,[9]; [27],20 MFI
same,fluorescence intensity,[9]; [28],19.5 MFI
same,fluorescence intensity,[9]; [29],19.5 MFI
same,fluorescence intensity,[9]; [30],21 MFI
same,fluorescence intensity,[9]; [31],24.2 MFI
same,fluorescence intensity,[10]; [24],28 MFI
same,fluorescence intensity,[10]; [25],26.8 MFI
same,fluorescence intensity,[10]; [26],27 MFI
same,fluorescence intensity,[10]; [27],26.5 MFI
same,fluorescence intensity,[10]; [28],26.5 MFI
same,fluorescence intensity,[10]; [29],26 MFI
same,fluorescence intensity,[10]; [30],27 MFI
same,fluorescence intensity,[10]; [31],29.8 MFI
same,fluorescence intensity,[11]; [24],23 MFI
same,fluorescence intensity,[11]; [25],23.2 MFI
same,fluorescence intensity,[11]; [26],24.5 MFI
same,fluorescence intensity,[11]; [27],22 MFI
same,fluorescence intensity,[11]; [28],23.8 MFI
same,fluorescence intensity,[11]; [29],23.5 MFI
same,fluorescence intensity,[11]; [30],24.5 MFI
same,fluorescence intensity,[11]; [31],27 MFI
same,fluorescence intensity,[12]; [24],32 MFI
same,fluorescence intensity,[12]; [25],30.2 MFI
same,fluorescence intensity,[12]; [26],30.5 MFI
same,fluorescence intensity,[12]; [27],31 MFI
same,fluorescence intensity,[12]; [28],32.2 MFI
same,fluorescence intensity,[12]; [29],30.5 MFI
same,fluorescence intensity,[12]; [30],33 MFI
same,fluorescence intensity,[12]; [31],40.8 MFI
same,fluorescence intensity,[13]; [24],18.5 MFI
same,fluorescence intensity,[13]; [25],18 MFI
same,fluorescence intensity,[13]; [26],17 MFI
same,fluorescence intensity,[13]; [27],18 MFI
same,fluorescence intensity,[13]; [28],21 MFI
same,fluorescence intensity,[13]; [29],20.5 MFI
same,fluorescence intensity,[13]; [30],23.8 MFI
same,fluorescence intensity,[13]; [31],33 MFI
same,fluorescence intensity,[14]; [24],22.5 MFI
same,fluorescence intensity,[14]; [25],24 MFI
same,fluorescence intensity,[14]; [26],23.5 MFI
same,fluorescence intensity,[14]; [27],23 MFI
same,fluorescence intensity,[14]; [28],23 MFI
same,fluorescence intensity,[14]; [29],24 MFI
same,fluorescence intensity,[14]; [30],25.5 MFI
same,fluorescence intensity,[14]; [31],33 MFI
same,fluorescence intensity,[15]; [24],16.5 MFI
same,fluorescence intensity,[15]; [25],19 MFI
same,fluorescence intensity,[15]; [26],17.2 MFI
same,fluorescence intensity,[15]; [27],18 MFI
same,fluorescence intensity,[15]; [28],19 MFI
same,fluorescence intensity,[15]; [29],20.8 MFI
same,fluorescence intensity,[15]; [30],19.5 MFI
same,fluorescence intensity,[15]; [31],27.8 MFI
same,fluorescence intensity,[16]; [24],31 MFI
same,fluorescence intensity,[16]; [25],29.5 MFI
same,fluorescence intensity,[16]; [26],29.5 MFI
same,fluorescence intensity,[16]; [27],29 MFI
same,fluorescence intensity,[16]; [28],29 MFI
same,fluorescence intensity,[16]; [29],29 MFI
same,fluorescence intensity,[16]; [30],34 MFI
same,fluorescence intensity,[16]; [31],69.8 MFI
same,fluorescence intensity,[17]; [24],27 MFI
same,fluorescence intensity,[17]; [25],25 MFI
same,fluorescence intensity,[17]; [26],25.5 MFI
same,fluorescence intensity,[17]; [27],24 MFI
same,fluorescence intensity,[17]; [28],25.2 MFI
same,fluorescence intensity,[17]; [29],24.2 MFI
same,fluorescence intensity,[17]; [30],30 MFI
same,fluorescence intensity,[17]; [31],51.8 MFI
same,fluorescence intensity,[18]; [24],25 MFI
same,fluorescence intensity,[18]; [25],25.8 MFI
same,fluorescence intensity,[18]; [26],25.8 MFI
same,fluorescence intensity,[18]; [27],25.8 MFI
same,fluorescence intensity,[18]; [28],24.8 MFI
same,fluorescence intensity,[18]; [29],26 MFI
same,fluorescence intensity,[18]; [30],29.2 MFI
same,fluorescence intensity,[18]; [31],42 MFI
same,fluorescence intensity,[19]; [24],18 MFI
same,fluorescence intensity,[19]; [25],20 MFI
same,fluorescence intensity,[19]; [26],20 MFI
same,fluorescence intensity,[19]; [27],21 MFI
same,fluorescence intensity,[19]; [28],20 MFI
same,fluorescence intensity,[19]; [29],19.5 MFI
same,fluorescence intensity,[19]; [30],21.2 MFI
same,fluorescence intensity,[19]; [31],27.2 MFI
same,fluorescence intensity,[20]; [24],25.2 MFI
same,fluorescence intensity,[20]; [25],21.5 MFI
same,fluorescence intensity,[20]; [26],22.2 MFI
same,fluorescence intensity,[20]; [27],22.5 MFI
same,fluorescence intensity,[20]; [28],22 MFI
same,fluorescence intensity,[20]; [29],23.5 MFI
same,fluorescence intensity,[20]; [30],25.5 MFI
same,fluorescence intensity,[20]; [31],48.5 MFI
same,fluorescence intensity,[21]; [24],25.5 MFI
same,fluorescence intensity,[21]; [25],24.5 MFI
same,fluorescence intensity,[21]; [26],24.2 MFI
same,fluorescence intensity,[21]; [27],23.8 MFI
same,fluorescence intensity,[21]; [28],23.5 MFI
same,fluorescence intensity,[21]; [29],24 MFI
same,fluorescence intensity,[21]; [30],25.8 MFI
same,fluorescence intensity,[21]; [31],28.5 MFI
same,fluorescence intensity,[22]; [24],19 MFI
same,fluorescence intensity,[22]; [25],17.5 MFI
same,fluorescence intensity,[22]; [26],20.5 MFI
same,fluorescence intensity,[22]; [27],17.5 MFI
same,fluorescence intensity,[22]; [28],19.5 MFI
same,fluorescence intensity,[22]; [29],21.2 MFI
same,fluorescence intensity,[22]; [30],21 MFI
same,fluorescence intensity,[22]; [31],24.5 MFI
same,fluorescence intensity,[23]; [24],23.2 MFI
same,fluorescence intensity,[23]; [25],21 MFI
same,fluorescence intensity,[23]; [26],22 MFI
same,fluorescence intensity,[23]; [27],20.2 MFI

# Six consecutive entries already listed, quoted:
binder,measurement,setting,value
4-127.4 (protein) chain 1: QVQLQESGPGLVKPSETLSLTCGVSGYSISSGHGWSWIRQPPGKGLEWIGYVGGSSGNTNYNPSLKSRVTISKDTSKNQISLKLSSVTAADTAVYYCARRGISGTFGLVDYWGQGVLVTVSS chain 2: QSVLTQPPSVSGAPGQRVTISCTGSSSNIGGYYVQWYQQLPGSAPKLLIYDNDQRPSGVSDRISGSRSGTSASLTITGLQSEDEADYYCQSFDSFLRGVLFGGGTRLTVL,fluorescence intensity,[13]; [27],18 MFI
same,fluorescence intensity,[13]; [28],21 MFI
same,fluorescence intensity,[13]; [29],20.5 MFI
same,fluorescence intensity,[13]; [30],23.8 MFI
same,fluorescence intensity,[13]; [31],33 MFI
same,fluorescence intensity,[14]; [24],22.5 MFI
